No constants are given. Whether binding was seen depends on the method and setting. In cells and extracts the contact can be indirect. Some binding calls cover weakened binding; strength is not graded here.
Molecular target: KDM6B (human (endogenous in IMR32)) (UniProt O15054)
Assay: co-IP

By UniProt entry, the sequences of proteins in these tests, tags left out.
UniProt O15054: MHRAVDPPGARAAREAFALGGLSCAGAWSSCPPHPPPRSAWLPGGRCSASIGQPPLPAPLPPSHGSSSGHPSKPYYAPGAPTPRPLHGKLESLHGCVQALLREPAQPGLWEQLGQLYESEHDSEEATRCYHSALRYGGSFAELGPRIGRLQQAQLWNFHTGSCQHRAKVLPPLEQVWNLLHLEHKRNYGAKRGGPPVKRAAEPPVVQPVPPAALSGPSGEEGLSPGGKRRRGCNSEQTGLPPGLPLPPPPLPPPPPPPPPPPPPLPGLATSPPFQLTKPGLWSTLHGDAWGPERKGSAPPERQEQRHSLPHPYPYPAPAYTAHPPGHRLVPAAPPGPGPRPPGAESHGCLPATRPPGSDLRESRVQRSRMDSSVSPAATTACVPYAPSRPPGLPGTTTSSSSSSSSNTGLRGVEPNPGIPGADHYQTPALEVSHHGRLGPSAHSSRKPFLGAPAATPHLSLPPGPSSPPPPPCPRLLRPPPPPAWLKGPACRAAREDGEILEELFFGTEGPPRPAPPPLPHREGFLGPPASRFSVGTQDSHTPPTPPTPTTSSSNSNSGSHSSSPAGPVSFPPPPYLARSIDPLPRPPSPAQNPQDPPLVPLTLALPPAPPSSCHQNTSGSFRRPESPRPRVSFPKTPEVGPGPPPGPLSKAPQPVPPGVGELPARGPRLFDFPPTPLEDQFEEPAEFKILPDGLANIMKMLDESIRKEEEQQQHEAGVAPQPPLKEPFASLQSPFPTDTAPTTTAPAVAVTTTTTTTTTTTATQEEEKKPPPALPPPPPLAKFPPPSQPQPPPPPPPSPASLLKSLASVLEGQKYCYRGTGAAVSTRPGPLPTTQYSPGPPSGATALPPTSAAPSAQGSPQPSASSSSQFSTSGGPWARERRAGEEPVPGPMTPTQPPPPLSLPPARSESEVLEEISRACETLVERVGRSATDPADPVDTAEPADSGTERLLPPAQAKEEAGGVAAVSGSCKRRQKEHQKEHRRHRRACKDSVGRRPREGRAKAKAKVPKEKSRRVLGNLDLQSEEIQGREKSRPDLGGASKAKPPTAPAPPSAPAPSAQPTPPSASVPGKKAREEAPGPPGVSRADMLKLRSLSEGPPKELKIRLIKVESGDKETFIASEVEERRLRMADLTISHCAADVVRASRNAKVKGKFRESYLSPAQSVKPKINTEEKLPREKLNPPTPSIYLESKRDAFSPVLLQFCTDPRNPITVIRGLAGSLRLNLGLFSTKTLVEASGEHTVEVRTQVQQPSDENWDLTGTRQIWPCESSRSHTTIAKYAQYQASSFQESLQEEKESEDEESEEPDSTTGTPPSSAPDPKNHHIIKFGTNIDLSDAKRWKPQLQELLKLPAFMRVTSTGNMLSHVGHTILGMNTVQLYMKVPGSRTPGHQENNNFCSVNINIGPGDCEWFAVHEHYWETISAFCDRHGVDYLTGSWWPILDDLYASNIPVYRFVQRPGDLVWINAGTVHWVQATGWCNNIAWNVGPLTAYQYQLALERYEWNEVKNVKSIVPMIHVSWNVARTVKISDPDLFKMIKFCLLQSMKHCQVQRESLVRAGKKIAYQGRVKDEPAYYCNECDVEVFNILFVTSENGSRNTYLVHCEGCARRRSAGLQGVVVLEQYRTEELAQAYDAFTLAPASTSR

binding: binds
B1: AKNA (protein, UniProt Q7Z591 1-1439)
chain: MASSETEIRWAEPGLGKGPQRRRWAWAEDKRDVDRSSSQSWEEERLFPNATSPELLEDFRLAQQHLPPLEWDPHPQPDGHQDSESGETSGEEAEAEDVDSPASSHEPLAWLPQQGRQLDMTEEEPDGTLGSLEVEEAGESSSRLGYEAGLSLEGHGNTSPMALGHGQARGWVASGEQASGDKLSEHSEVNPSVELSPARSWSSGTVSLDHPSDSLDSTWEGETDGPQPTALAETLPEGPSHHLLSPDGRTGGSVARATPMEFQDSSAPPAQSPQHATDRWRRETTRFFCPQPKEHIWKQTKTSPKPLPSRFIGSISPLNPQPRPTRQGRPLPRQGATLAGRSSSNAPKYGRGQLNYPLPDFSKVGPRVRFPKDESYRPPKSRSHNRKPQAPARPLIFKSPAEIVQEVLLSSGEAALAKDTPPAHPITRVPQEFQTPEQATELVHQLQEDYHRLLTKYAEAENTIDQLRLGAKVNLFSDPPQPNHSIHTGMVPQGTKVLSFTIPQPRSAEWWPGPAEDPQASAASGWPSARGDLSPSSLTSMPTLGWLPENRDISEDQSSAEQTQALASQASQFLAKVESFERLIQAGRLMPQDQVKGFQRLKAAHAALEEEYLKACREQHPAQPLAGSKGTPGRFDPRRELEAEIYRLGSCLEELKEHIDQTQQEPEPPGSDSALDSTPALPCLHQPTHLPAPSGQAPMPAIKTSCPEPATTTAAASTGPCPLHVNVEVSSGNSEVEDRPQDPLARLRHKELQMEQVYHGLMERYLSVKSLPEAMRMEEEEEGEEEEEEEGGGDSLEVDGVAATPGKAEATRVLPRQCPVQAEKSHGAPLEEATEKMVSMKPPGFQASLARDGHMSGLGKAEAAPPGPGVPPHPPGTKSAASHQSSMTSLEGSGISERLPQKPLHRGGGPHLEETWMASPETDSGFVGSETSRVSPLTQTPEHRLSHISTAGTLAQPFAASVPRDGASYPKARGSLIPRRATEPSTPRSQAQRYLSSPSGPLRQRAPNFSLERTLAAEMAVPGSEFEGHKRISEQPLPNKTISPPPAPAPAAAPLPCGPTETIPSFLLTRAGRDQAICELQEEVSRLRLRLEDSLHQPLQGSPTRPASAFDRPARTRGRPADSPATWGSHYGSKSTERLPGEPRGEEQIVPPGRQRARSSSVPREVLRLSLSSESELPSLPLFSEKSKTTKDSPQAARDGKRGVGSAGWPDRVTFRGQYTGHEYHVLSPKAVPKGNGTVSCPHCRPIRTQDAGGAVTGDPLGPPPADTLQCPLCGQVGSPPEADGPGSATSGAEKATTRRKASSTPSPKQRSKQAGSSPRPPPGLWYLATAPPAPAPPAFAYISSVPIMPYPPAAVYYAPAGPTSAQPAAKWPPTASPPPARRHRHSIQLDLGDLEELNKALSRAVQAAESVRSTTRQMRSSLSADLRQAHSLRGSCLF
